Structures can show the parent of a compound that is named as a salt. This is one part of the list. This data set is noisy: repeats of one test often differ as much as different tests do.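 Human embryonic kidney cells were transiently transfected with a plasmid bearing a Renilla luciferase gene under the HSV-TK promoter. This first-round screen tests roughly ten thousand compounds for ones that increase reporter output.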
Each molecule was assayed on HEK 293FT (assay: log relative Renilla luciferase luminescence (reporter expression vs reference, reference not stated) (log (base not stated)); higher = higher recombinant reporter expression). Details: 10 µM; time after transfection 48 h.
For `Nc1ccncc1` [fampridine], the log was 0.0818.
`CN(C)Cc1c[nH]c2ccccc12` [gramine] was tested, and the log was 0.00491.
`COc1cc([C@@H]2c3cc4c(cc3[C@H](OC(C)=O)[C@H]3COC(=O)[C@H]23)OCO4)cc(OC)c1OC` [podophyllin acetate] gave a log of -0.0429.
`O=C(O[C@H]1C[C@H]2CC[C@@H](C1)[N+]21CCCC1)C(O)(c1ccccc1)c1ccccc1` [trospium chloride] showed a log of 0.198.
`COc1ccc(C(=O)N2CCCC2=O)cc1` [aniracetam] gave a log of 0.0633.
Work on `O=C(O)CCCc1ccc(N(CCCl)CCCl)cc1` [chlorambucil] yielded a log of -0.232.
Molecule `CC[C@@]1(O)C[C@H](O)c2c(cc3c(c2O)C(=O)c2c(O)ccc(O)c2C3=O)[C@H]1C(=O)OC` [rutilantinone] has a log of -0.0376.
`COC(=O)[C@@H]1C[C@H](OC(C)=O)C(=O)[C@H]2[C@@]1(C)CC[C@H]1C(=O)O[C@H](c3ccoc3)C[C@]21C` [salvinorin a] gave a log of 0.00551.
Molecule `O=C1C=C2C=C[C@@H]3C[C@@]2(O1)[C@H]1CCCCN31` [securinine] has a log of -1.05.
With `Oc1noc2c1CCNC2` [gaboxadol hydrochloride] the log was 0.101.
`COc1cc([C@@H]2c3cc4c(cc3[C@H](O)[C@H]3COC(=O)[C@@H]23)OCO4)cc(OC)c1OC` [picropodophyllin] showed a log of -0.19.
In the case of `CCCC(C)C1(CC)C(=O)NC(=S)NC1=O` (stereo unspecified) [thiopental sodium], the log is reported as 0.132.
Molecule `CC(C)=CC1C(C(=O)OCc2cccc(Oc3ccccc3)c2)C1(C)C` (stereo unspecified) [phenothrin] has a log of -0.0194.
`CC1(C)C(=O)C=C[C@]2(C)[C@H]3CC[C@@]4(C)[C@H](c5ccoc5)OC(=O)[C@H]5O[C@]54[C@]3(C)[C@H](O)C[C@@H]12` [deacetylgedunin] showed a log of -0.107.
`C[CH2][Hg][S]c1ccccc1C(=O)[O-].[Na+]` [thimerosal] gave a log of -1.99.
With `NC(=O)C[S@@+]([O-])C(c1ccccc1)c1ccccc1` [armodafinil] the log was -0.12.
Work on `CC(C)=CCC[C@]1(C)C=Cc2c(O)c3c(c(CC=C(C)C)c2O1)O[C@]12C(=C[C@@H]4C[C@H]1C(C)(C)O[C@@]2(C/C=C(/C)C(=O)O)C4=O)C3=O` [gambogic acid] yielded a log of -1.27.
`NCCc1cc(O)c(O)cc1O` [oxidopamine hydrochloride] was tested, and the log was 0.0787.
`N#Cc1nn(-c2c(Cl)cc(C(F)(F)F)cc2Cl)c(N)c1[S+]([O-])C(F)(F)F` (stereo unspecified) [fipronil] was tested, and the log was 0.133.
Work on `O=C1C[C@@H]2OCC=C3CN4CC[C@]56c7ccccc7N1[C@H]5[C@H]2[C@H]3C[C@H]46` [strychnine] yielded a log of 0.193.
For `CC[C@@]1(O)C(=O)OCc2c1cc1n(c2=O)Cc2cc3ccccc3nc2-1` [camptothecin], the log was -0.782.

From the supplement of paper PMC7024190
